## Drug screen on melanoma cell lines: cell count

From a melanoma drug combination screen (doi:10.1371/journal.pone.0140310); values rounded.

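Human melanoma cells were exposed to a pair of drugs for 72 h in 1,536-well plates and read by automated microscopy after fixing and staining. The read-out is cell count (nuclei) in % of the DMSO control; lower values mean stronger growth inhibition or killing. Every drug was used at one fixed concentration, the lower of two screened (a fifth of the higher). These are primary screening values without error estimates.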 Only some of the drugs and lines screened are listed, without regard to their results. A dash means that no value is listed here.

First drug in all entries: vatalanib, 2 µM, Clc1ccc(Nc2nnc(Cc3ccncc3)c3ccccc23)cc1

| # | Second drug | A375 | IPC-298 | MEL-HO | A2058 | G-361 | LB2518-MEL | COLO 800 | A101D | COLO 829 | 501mel | C32 | IST-MEL1 | COLO 792 | LOX IMVI |
|---|---|---|---|---|---|---|---|---|---|---|---|---|---|---|---|
| 1 | C/C(O)=C(\C#N)C(=O)Nc1cc(Br)ccc1Br at 2 µM | - | 99.6 | 80.0 | 93.6 | 105 | 93.3 | 79.6 | 85.0 | 81.5 | 94.5 | 91.8 | 90.7 | 89.0 | 88.2 |
| 2 | CCCCCCCCc1ccc(CCC(N)(CO)CO)cc1 at 2 µM | 50.9 | 98.5 | 86.4 | 79.8 | 97.5 | 111 | 92.7 | 86.4 | 72.2 | - | 99.5 | 95.1 | 86.6 | 91.4 |
| 3 | Cc1cn(-c2cc(NC(=O)c3ccc(C)c(Nc4nccc(-c5cccnc5)n4)c3)cc(C(F)(F)F)c2)cn1 at 0.2 µM | 98.4 | 101 | 94.1 | 87.5 | 122 | 91.4 | 161 | 116 | 116 | - | 98.4 | 104 | 108 | 60.4 |
| 4 | O=C(Nc1cc(C(F)(F)F)cc(C(F)(F)F)c1)c1cc(Cl)ccc1O at 0.016 µM | 88.0 | 95.1 | 95.9 | 103 | 88.4 | 111 | 101 | 88.4 | 107 | - | 101 | 100 | 76.8 | 99.7 |
| 5 | CCCCCCCCCCCCCCCCCCOP(=O)([O-])OC1CC[N+](C)(C)CC1 at 0.4 µM | 98.4 | 92.3 | 92.9 | 87.6 | 99.7 | 103 | 83.7 | 105 | 98.3 | - | 96.1 | 95.1 | 96.3 | 92.8 |
| 6 | CC(=O)c1c(C)c2cnc(Nc3ccc(N4CCNCC4)cn3)nc2n(C2CCCC2)c1=O at 0.04 µM | 69.5 | 86.4 | 87.9 | 95.5 | 78.7 | 89.8 | 72.0 | 78.6 | 109 | - | 83.4 | 80.2 | 66.3 | 85.8 |
| 7 | Nc1nc(F)nc2c1ncn2[C@@H]1O[C@H](CO)[C@@H](O)[C@@H]1O at 0.2 µM | 18.9 | 81.7 | 87.0 | 92.4 | 96.0 | 90.6 | 104 | 91.5 | 90.7 | - | 93.6 | 88.3 | 85.2 | 60.1 |
| 8 | Cc1cc(Nc2cc(N3CCN(C)CC3)nc(Sc3ccc(NC(=O)C4CC4)cc3)n2)n[nH]1 at 0.006 µM | 108 | 95.6 | 84.8 | 81.8 | 99.5 | 96.5 | 59.4 | 106 | 81.1 | - | 83.4 | 96.7 | 122 | 112 |
| 9 | CC[C@]1(O)C[C@H]2CN(CCc3c([nH]c4ccccc34)[C@@](C(=O)OC)(c3cc4c(cc3OC)N(C=O)[C@H]3[C@@](O)(C(=O)OC)[C@H](OC(C)=O)[C@]5(CC)C=CCN6CC[C@]43[C@@H]65)C2)C1 at 0.0001 µM | 52.1 | 94.5 | 94.4 | 11.4 | 80.5 | 81.8 | 75.5 | 67.1 | 80.7 | - | 63.7 | 90.0 | 86.9 | 69.7 |
| 10 | CC(=O)O[C@@]12CO[C@@H]1C[C@H](O)[C@@]1(C)C(=O)[C@H](O)C3=C(C)[C@@H](OC(=O)[C@H](O)[C@@H](NC(=O)OC(C)(C)C)c4ccccc4)C[C@@](O)([C@@H](OC(=O)c4ccccc4)[C@H]21)C3(C)C at 0.0001 µM | 32.0 | 57.5 | 55.7 | 12.7 | 23.1 | 69.2 | 28.1 | 80.7 | 59.7 | - | 84.7 | 64.1 | 36.6 | 79.9 |
| 11 | CCCS(=O)(=O)Nc1ccc(F)c(C(=O)c2c[nH]c3ncc(Cl)cc23)c1F at 0.08 µM | 70.9 | 87.9 | 89.4 | 107 | 103 | 115 | 92.0 | 87.0 | 97.4 | - | 86.9 | 102 | 128 | 102 |
| 12 | CN1CCN(c2ccc3nc(-c4c(N)c5c(F)cccc5[nH]c4=O)[nH]c3c2)CC1 at 0.1 µM | 65.5 | 104 | 88.1 | 81.2 | 66.6 | 94.0 | 88.9 | 87.7 | 90.4 | - | 91.4 | 86.2 | 73.6 | 64.6 |
| 13 | O=C(O)c1ccc2c(c1)nc(Nc1cccc(Cl)c1)c1ccncc12 at 0.4 µM | 96.7 | 96.0 | 83.8 | 90.1 | 78.6 | 108 | 97.4 | 110 | 66.2 | - | 99.3 | 99.7 | 90.6 | 110 |
| 14 | CN(c1ncccc1CNc1nc(Nc2ccc3c(c2)CC(=O)N3)ncc1C(F)(F)F)S(C)(=O)=O at 0.08 µM | 88.0 | 88.7 | 81.0 | 78.2 | 79.2 | 96.9 | 102 | 76.8 | 81.9 | - | 75.2 | 103 | 81.4 | 100 |
| 15 | C[C@@H](Oc1cc(-c2cnn(C3CCNCC3)c2)cnc1N)c1c(Cl)ccc(F)c1Cl at 0.2 µM | 107 | 99.7 | 96.8 | 111 | 87.5 | 94.5 | 106 | 91.3 | 81.4 | - | 92.7 | 97.9 | 84.2 | 98.9 |
| 16 | Cc1cc(SCc2sc(-c3ccc(C(F)(F)F)c(F)c3)nc2C)ccc1OCC(=O)O at 2 µM | - | 97.8 | 91.9 | 113 | 98.4 | - | 59.4 | 104 | 110 | - | 103 | 97.2 | 110 | 102 |
| 17 | Nc1ccn([C@@H]2O[C@H](CO)[C@@H](O)C2(F)F)c(=O)n1 at 0.0004 µM | 80.3 | 71.3 | 74.5 | 78.3 | 77.8 | 86.2 | 62.3 | 76.3 | 75.4 | - | 88.8 | 57.0 | 62.2 | 87.5 |
| 18 | NC1(c2ccc(-c3nc4ccn5c(=O)[nH]nc5c4cc3-c3ccccc3)cc2)CCC1 at 0.4 µM | 80.7 | 89.5 | 79.9 | 89.6 | 86.3 | 95.7 | 69.2 | 80.0 | 79.8 | - | 92.0 | 83.4 | 51.4 | 69.9 |
| 19 | O=C(O)[C@@H]1[O][Sb](=[O])([O][Sb]2(=[O])[O][C@H]([C@H](O)CO)[C@H](O)[C@H](C(=O)O)[O]2)[O][C@H]([C@H](O)CO)[C@@H]1O (stereo partly drawn) at 2 µM | 105 | 92.6 | 108 | 97.9 | 113 | 106 | 91.8 | 92.3 | 108 | - | 103 | 98.7 | 101 | 69.4 |
| 20 | CC1(C)CCC(c2ccc(Cl)cc2)=C(CN2CCN(c3ccc(C(=O)NS(=O)(=O)c4ccc(N[C@H](CCN5CCOCC5)CSc5ccccc5)c(S(=O)(=O)C(F)(F)F)c4)cc3)CC2)C1 at 0.4 µM | 49.5 | 99.6 | 72.0 | 79.1 | 77.4 | 94.9 | 42.0 | 50.8 | 77.8 | - | 54.0 | 67.8 | 45.8 | 87.0 |
| 21 | C=C(c1ccc(C(=O)O)cc1)c1cc2c(cc1C)C(C)(C)CCC2(C)C at 2 µM | 99.0 | 93.1 | 87.2 | 92.5 | 79.5 | 107 | 78.5 | 109 | 82.8 | - | 110 | 92.3 | 101 | 80.3 |
| 22 | CS(=O)(=O)c1ccc(C(=O)Nc2ccc(Cl)c(-c3ccccn3)c2)c(Cl)c1 at 1 µM | 84.7 | 98.6 | 84.6 | 78.1 | 76.8 | 102 | 75.1 | 90.3 | 110 | - | 92.8 | 93.7 | 91.7 | 78.5 |
| 23 | Cc1cc(Nc2cc(N3CCN(C)CC3)nc(/C=C/c3ccccc3)n2)n[nH]1 at 0.04 µM | 80.5 | 94.6 | 94.9 | 90.1 | 99.4 | 106 | 70.8 | 97.6 | 85.9 | - | 85.6 | 103 | 88.4 | 71.5 |
| 24 | O=C(Oc1ccc([N+](=O)[O-])cc1)N1CCC(C(O)(c2ccc3c(c2)OCO3)c2ccc3c(c2)OCO3)CC1 at 1 µM | - | 86.7 | 102 | 93.0 | 77.9 | 107 | 47.0 | 95.1 | 85.7 | 94.4 | 96.0 | 91.0 | 87.9 | 92.7 |
| 25 | C[C@@H](N)c1ccc(C(=O)Nc2ccnc3[nH]ccc23)cc1 at 0.4 µM | 96.5 | 93.3 | 71.6 | 83.3 | 94.8 | 115 | 89.0 | 92.1 | 91.3 | - | 75.8 | 105 | 88.1 | 63.3 |
| 26 | OCc1c[nH]c2ccccc12 at 0.8 µM | 94.3 | 92.5 | 89.2 | 84.7 | 86.2 | - | 116 | 96.2 | 82.0 | - | 92.2 | 100 | 95.6 | 91.6 |
| 27 | O=c1[nH]nc(Sc2ncc([N+](=O)[O-])s2)n1-c1ccc2c(c1)OCCO2 at 0.2 µM | 79.6 | 87.4 | 99.5 | 90.5 | 92.5 | 84.9 | 123 | 100 | 110 | - | 90.7 | 99.3 | 75.7 | 90.9 |
| 28 | N.N.[Cl][Pt][Cl] at 1.6 µM | 0.3 | 104 | 108 | 93.5 | 100 | 112 | 63.0 | 91.8 | 103 | - | 113 | 100 | 93.0 | 73.8 |
| 29 | Cn1cc(C2=C(c3cn(C4CCN(Cc5ccccn5)CC4)c4ccccc34)C(=O)NC2=O)c2ccccc21 at 0.8 µM | 79.9 | 107 | 102 | 95.4 | 96.9 | 124 | 68.9 | 93.3 | 86.4 | - | 104 | 96.1 | 84.2 | 139 |
| 30 | CS(=O)(=O)CCNCc1ccc(-c2ccc3ncnc(Nc4ccc(OCc5cccc(F)c5)c(Cl)c4)c3c2)o1 at 0.8 µM | 89.3 | 90.7 | 92.0 | 83.3 | 92.9 | 101 | 114 | 97.6 | 101 | - | 102 | 84.6 | 72.9 | 126 |
| 31 | CCc1ccc(CCOc2ccc(CC3SC(=O)NC3=O)cc2)nc1 (stereo not drawn) at 2 µM | - | 87.0 | 75.0 | 94.3 | 94.1 | 94.8 | 110 | 103 | 130 | 99.2 | 90.6 | 97.9 | 97.4 | 106 |
| 32 | CNC(=O)c1cc(Oc2ccc(NC(=O)Nc3ccc(Cl)c(C(F)(F)F)c3)cc2)ccn1 at 0.4 µM | 89.6 | 92.1 | 98.3 | 98.6 | 99.2 | 117 | 140 | 95.7 | 82.3 | - | 111 | 89.0 | 97.1 | 103 |